In PubChem BioAssay AID2685 (National Center for Advancing Translational Sciences (NCATS), 2010):
The list shows a part of the results. The main result of the screen is listed elsewhere. These columns were measured beside it and carry no call. Most of these compounds were active or inconclusive in the main read-out, so they are no random draw. The note in brackets gives the kind of curve behind each potency; many fits are weak.

Experiment: qHTS Assay for Lipid Storage Modulators in Drosophila S3 Cells;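 on cell number change: cells counted by Cell Tracker Red CMTPX staining in the red channel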
Settings: BODIPY lipid droplet fluorescence, 18-24 h; for cell number change: measured here: cell count max response, cells fed with added oleic acid
Summary of the method: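 Laser-scanning cytometry quantifies lipid droplet accumulation (500–530 nm total intensity; droplet/cell object ratio) in oleic acid-fed (400 uM added) Drosophila S3 cells treated with a concentration series. 20 uM Triacsin C defined 100% inhibition.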

[1] = measured here: lipid fluorescence (Fed channel) AC50, cells fed with added oleic acid
[2] = measured here: cell number channel AC50, cells fed with added oleic acid

SMILES | cell number change [%] | AC50 [1] | AC50 [2]
CCN(CC)S(=O)(=O)c1cccc(C(=O)OCC(=O)NC(C)c2ccccc2)c1 (stereo not drawn) | -4.6 | 0.651 µM [rising, single point] | –
NNC(=O)c1csc(-c2ccccc2)n1 | 0.703 | – | 6.51 µM [falling, single point]
CC1CCCCN1C(=O)CSc1nc2ccccc2n1CC(=O)N1CCc2ccccc21 (stereo not drawn) | 119 | 1.3 µM [rising, full curve] | 6.51 µM [rising, partial curve]
CN(Cc1nc2ccccc2n1C)C(=O)c1cccs1 | -34.6 | 2.06 µM [falling, partial curve] | –
CCCC(=O)Nc1cccn(Cc2ccccc2Br)c1=O | – | – | 6.51 µM [rising, single point]
CC(C)CC(NC(=O)C1CCC(C)CC1)C(=O)Nc1ccc2c(c1)OCCO2 (stereo not drawn) | -12.5 | 6.51 µM [rising, single point] | –
CN1C(=S)SC(N(O)C(=O)Nc2cccc3ccccc23)C1(C)C (stereo not drawn) | -1.26 | – | –
Cc1ccc(C(=O)NCC(=O)OC(C)C(=O)Nc2ccc(N(C)C)cc2)cc1C (stereo not drawn) | -19.7 | – | 6.51 µM [falling, single point]
O=C1c2ccccc2C(=O)N1CCCCN(C(=O)c1ccc([N+](=O)[O-])cc1)c1ccc(Cl)cc1 | -4.9 | 0.461 µM [rising, single point] | –
C=CCn1c(=O)c2ccccc2n2c(SCC(=O)NC)nnc12 | – | – | 6.51 µM [rising, single point]
CCOc1ccc(-c2cc(C(=O)OC)[nH]n2)cc1 | 0.24 | 0.082 µM [rising, full curve, poor fit] | –
N#Cc1c(N)n(-c2ccccc2N)c2nc3ccccc3nc12 | 0.679 | 3.26 µM [falling, single point] | –
COC(=O)c1cc(S(=O)(=O)N2CCCCC2C)c[nH]1 (stereo not drawn) | 2.14 | 0.82 µM [falling, partial curve, poor fit] | –
O=C(N/N=C/c1cccc(OC(=O)c2cccc(Br)c2)c1)c1cccnc1 | -2.31 | – | –
Cc1ccc(Cc2c(C)nc3nc(SCC(=O)NCCCN4CCOCC4)nn3c2C)cc1 | 84.9 | – | 20.6 µM [rising, single point]
COc1ccccc1CC(=O)Nc1ccc(S(=O)(=O)N2CCOCC2)cc1 | -2.1 | – | –
Cc1cccc(NC(=O)CSCC(=O)N(C)CCOc2ccc(Cl)cc2)c1 | -12.8 | – | 0.116 µM [falling, full curve, poor fit]
O=C(Nc1nc2cc3c(cc2s1)OCO3)c1cccc(N2C(=O)CCC2=O)c1 | – | 32.6 µM [rising, single point] | –
CCCN(CC(=O)Nc1ccccc1C)C(=O)C1CCN(C(=O)Nc2ccccc2)CC1 | -9.32 | 29.1 µM [falling, single point] | –
COc1cccc(C(=O)O[C@@H]2[C@H](Cc3ccccc3)NS(=O)(=O)[C@H]3C[C@@H]4C=C[C@]23O4)c1 | 8.04 | 6.51 µM [rising, single point] | –

SMILES | cell number change [%] | AC50 [1] | AC50 [2]
COC(=O)c1cccc(C23CC4(C2)[C@H](CN(C)[C@@H]4c2ccccc2)C3c2ccc(C(F)(F)F)cc2)c1 (stereo partly drawn) | -30.3 | 5.17 µM [falling, full curve] | 8.2 µM [falling, partial curve, poor fit]
CC(OC(=O)CCc1nc2ccccc2c(=O)[nH]1)C(=O)c1ccc(C(C)(C)C)cc1 (stereo not drawn) | 3.26 | 5.8 µM [falling, full curve] | 0.116 µM [rising, full curve, poor fit]
Cc1cccc(C)c1NC(=O)c1cc2c(=O)c3ccccc3oc2nc1C(F)(F)F | -47.5 | 20.6 µM [falling, partial curve, poor fit] | 29.1 µM [falling, single point]
Cc1nn(-c2ccccc2)c(Cl)c1C(=O)NCC(C)C | – | 6.51 µM [rising, single point] | –
CSc1ccccc1C(=O)OCC(=O)N1CCN(C(C)=O)CC1 | 23 | 2.31 µM [rising, single point] | –
O=C(Nc1cccc(N=Cc2cc(Cl)cc(Br)c2O)c1)c1ccco1 | -24.3 | 29.1 µM [falling, single point] | –
Cc1cccc(CSc2nc3c(c(-c4cccs4)c2C#N)CN(C)CC3)c1 | 15.8 | 29.1 µM [rising, single point] | –
COc1ccc(CCN(C(=O)COc2ccccc2)c2nc(-c3ccccc3)cs2)cc1OC | -24.1 | 7.31 µM [falling, partial curve] | –
Cc1ccc(NC(=O)c2cccs2)cc1NC(=O)c1ccco1 | -3.32 | 0.206 µM [rising, full curve, poor fit] | –
CC(C)c1nc(SCC(=O)N2c3ccccc3CC2C)c2ccccc2n1 (stereo not drawn) | – | 0.82 µM [rising, full curve] | 0.517 µM [rising, full curve]
CCCCCOC(=O)C(C)c1c(C)[nH]c(=S)[nH]c1=O (stereo not drawn) | 2.48 | – | –
COc1ccc(-c2nn(-c3ccccc3)cc2C(=O)NC2CCC(C)CC2)cc1 (stereo not drawn) | -14.9 | – | 0.731 µM [falling, single point]
COc1cccc(C(=O)Nc2nnc(SCC(=O)Nc3ccc(NC(C)=O)cc3)s2)c1 | -7.78 | – | –
COC(=O)c1ccc2c(=O)n(CCN3CCOCC3)c(SCC(=O)Nc3cccc(OC)c3)nc2c1 | 3.05 | – | –
CCC1(c2ccc(F)cc2)NC(=O)N(CC(=O)N2c3ccccc3NC(=O)CC2C)C1=O (stereo not drawn) | -53.2 | 2.06 µM [rising, full curve] | 29.1 µM [falling, single point]
CCOC(=O)c1cnc2c(ccc3ccccc32)c1Cl | 16.9 | 29.1 µM [rising, partial curve, poor fit] | –
Cc1ccc(-c2cc(C)nc3nc(N)nn23)cc1 | 1.89 | 1.84 µM [rising, partial curve] | –
O=C(O)CCCC(=O)NCCCc1ccccc1 | 16.1 | – | –
Cc1ccccc1NC(=O)c1c(O)c2cccc3c2n(c1=O)CC3 | – | 1.84 µM [rising, partial curve] | 0.326 µM [rising, full curve]
CSc1ncc(C(=O)NCCCc2ccccc2)c(C)n1 | 22.5 | – | –

Rewritten in markdown: 17 of the compounds above.

| SMILES | cell number change [%] | AC50 [1] | AC50 [2] |
| --- | --- | --- | --- |
| Cc1cccc(C)c1NC(=O)c1cc2c(=O)c3ccccc3oc2nc1C(F)(F)F | -47.5 | 20.6 µM [falling, partial curve, poor fit] | 29.1 µM [falling, single point] |
| Cc1nn(-c2ccccc2)c(Cl)c1C(=O)NCC(C)C | – | 6.51 µM [rising, single point] | – |
| CSc1ccccc1C(=O)OCC(=O)N1CCN(C(C)=O)CC1 | 23 | 2.31 µM [rising, single point] | – |
| O=C(Nc1cccc(N=Cc2cc(Cl)cc(Br)c2O)c1)c1ccco1 | -24.3 | 29.1 µM [falling, single point] | – |
| Cc1cccc(CSc2nc3c(c(-c4cccs4)c2C#N)CN(C)CC3)c1 | 15.8 | 29.1 µM [rising, single point] | – |
| COc1ccc(CCN(C(=O)COc2ccccc2)c2nc(-c3ccccc3)cs2)cc1OC | -24.1 | 7.31 µM [falling, partial curve] | – |
| Cc1ccc(NC(=O)c2cccs2)cc1NC(=O)c1ccco1 | -3.32 | 0.206 µM [rising, full curve, poor fit] | – |
| CC(C)c1nc(SCC(=O)N2c3ccccc3CC2C)c2ccccc2n1 (stereo not drawn) | – | 0.82 µM [rising, full curve] | 0.517 µM [rising, full curve] |
| CCCCCOC(=O)C(C)c1c(C)[nH]c(=S)[nH]c1=O (stereo not drawn) | 2.48 | – | – |
| COc1ccc(-c2nn(-c3ccccc3)cc2C(=O)NC2CCC(C)CC2)cc1 (stereo not drawn) | -14.9 | – | 0.731 µM [falling, single point] |
| COc1cccc(C(=O)Nc2nnc(SCC(=O)Nc3ccc(NC(C)=O)cc3)s2)c1 | -7.78 | – | – |
| COC(=O)c1ccc2c(=O)n(CCN3CCOCC3)c(SCC(=O)Nc3cccc(OC)c3)nc2c1 | 3.05 | – | – |
| CCC1(c2ccc(F)cc2)NC(=O)N(CC(=O)N2c3ccccc3NC(=O)CC2C)C1=O (stereo not drawn) | -53.2 | 2.06 µM [rising, full curve] | 29.1 µM [falling, single point] |
| CCOC(=O)c1cnc2c(ccc3ccccc32)c1Cl | 16.9 | 29.1 µM [rising, partial curve, poor fit] | – |
| Cc1ccc(-c2cc(C)nc3nc(N)nn23)cc1 | 1.89 | 1.84 µM [rising, partial curve] | – |
| O=C(O)CCCC(=O)NCCCc1ccccc1 | 16.1 | – | – |
| Cc1ccccc1NC(=O)c1c(O)c2cccc3c2n(c1=O)CC3 | – | 1.84 µM [rising, partial curve] | 0.326 µM [rising, full curve] |

(list continues)

SMILES | cell number change [%] | AC50 [1] | AC50 [2]
COC(=O)c1c(C)[nH]c(C(=O)CSc2ncnc3sc(-c4ccccc4)cc23)c1C | -36.9 | 8.2 µM [falling, partial curve, poor fit] | –
COc1ccc(OC)c(NC(=O)CC2C(=O)NCCN2C(=O)Nc2cccc(Cl)c2)c1 (stereo not drawn) | -12 | – | –
CNc1ccc(/C=C/C(=O)c2ccc(C)cc2)cc1[N+](=O)[O-] | -20 | 29.1 µM [falling, single point] | –
CN(NS(=O)(=O)c1ccc(Cl)cc1)c1ncc(C(F)(F)F)cc1Cl | -18 | 29.1 µM [rising, single point] | –
O=C(CCN1C(=O)C2CC=CCC2C1=O)Nc1ccc(S(=O)(=O)N2CCCCC2)cc1 (stereo not drawn) | 7.23 | – | –
CCOC(=O)N1CCN(C(=O)c2cc(-n3cnnc3)ccc2Cl)CC1 | -11.2 | 0.92 µM [falling, full curve, poor fit] | –
Cc1c(Cl)c(=O)oc2cc(OCC(=O)NCc3cccs3)ccc12 | 9.11 | 32.6 µM [rising, single point] | –
COc1ccccc1/C=C1\SC(=S)N(C(C(=O)O)c2ccccc2)C1=O (stereo not drawn) | 19.9 | – | –
O=C1NC(C(F)(F)F)(C(F)(F)F)N=C2SC=CN12 | 16.4 | 4.11 µM [rising, single point] | –
CCCCn1c(=O)[nH]c(=O)c2c1nc(-c1ccc3ccccc3c1)n2CC | – | 6.51 µM [rising, partial curve] | 6.51 µM [rising, single point]
Cc1cc(Nc2ccccc2)n(CCC#N)n1 | 6.8 | – | –
COc1ccc2oc(C(=O)OCC(=O)Nc3ccc(OC)c(S(N)(=O)=O)c3)c(C)c2c1 | 49.5 | – | 29.1 µM [rising, single point]
CCOC(=O)CN1CC23C=CC(O2)C(C(=O)NCc2ccccc2OC)C3C1=O (stereo not drawn) | -53.6 | 9.2 µM [falling, partial curve] | 0.146 µM [falling, full curve, poor fit]
CC(C)(C)c1ccc(C(=O)Nc2ccc(O)c3c(=O)cc(-c4ccccc4Cl)oc23)cc1 | -16.3 | 1.84 µM [falling, full curve] | 1.84 µM [falling, single point]
O=C(NCc1nnc(SCc2ccccc2)n1-c1ccc(F)cc1)C12CC3CC(CC(C3)C1)C2 | -50.1 | 29.1 µM [falling, single point] | 20.6 µM [falling, single point]
CCCc1cc(C(=O)NC(C)C2CCCO2)cs1 (stereo not drawn) | 6.8 | 1.64 µM [falling, partial curve, poor fit] | –
COc1ccc(-n2nc(C(=O)NCC(=O)Nc3cc(OC)c(OC)c(OC)c3)c3ccccc3c2=O)cc1OC | -27 | 29.1 µM [falling, single point] | –
CCN(CC)S(=O)(=O)c1cc(NC(=O)c2cccc(N3C(=O)CCC3=O)c2)ccc1Cl | 10.8 | – | –
COc1ccc(CCNC(=O)CCc2ccc(S(=O)(=O)NC(C)C)cc2)cc1 | 34.2 | 29.1 µM [rising, single point] | 14.6 µM [rising, partial curve]
CCN(CC)c1ccc(S(=O)(=O)Nc2cc(Cl)ccc2Cl)cc1NC(=S)NC(=O)C1CCCC1 | 38.9 | 0.326 µM [falling, full curve] | 29.1 µM [rising, single point]
